Data published in paper PMC11597211.
These are yes or no findings as the source states them, for the method shown. In cells and extracts the contact can be indirect.

Sequences of proteins named here, by UniProt entry; tags and fusion partners are left off.
UniProt P08047: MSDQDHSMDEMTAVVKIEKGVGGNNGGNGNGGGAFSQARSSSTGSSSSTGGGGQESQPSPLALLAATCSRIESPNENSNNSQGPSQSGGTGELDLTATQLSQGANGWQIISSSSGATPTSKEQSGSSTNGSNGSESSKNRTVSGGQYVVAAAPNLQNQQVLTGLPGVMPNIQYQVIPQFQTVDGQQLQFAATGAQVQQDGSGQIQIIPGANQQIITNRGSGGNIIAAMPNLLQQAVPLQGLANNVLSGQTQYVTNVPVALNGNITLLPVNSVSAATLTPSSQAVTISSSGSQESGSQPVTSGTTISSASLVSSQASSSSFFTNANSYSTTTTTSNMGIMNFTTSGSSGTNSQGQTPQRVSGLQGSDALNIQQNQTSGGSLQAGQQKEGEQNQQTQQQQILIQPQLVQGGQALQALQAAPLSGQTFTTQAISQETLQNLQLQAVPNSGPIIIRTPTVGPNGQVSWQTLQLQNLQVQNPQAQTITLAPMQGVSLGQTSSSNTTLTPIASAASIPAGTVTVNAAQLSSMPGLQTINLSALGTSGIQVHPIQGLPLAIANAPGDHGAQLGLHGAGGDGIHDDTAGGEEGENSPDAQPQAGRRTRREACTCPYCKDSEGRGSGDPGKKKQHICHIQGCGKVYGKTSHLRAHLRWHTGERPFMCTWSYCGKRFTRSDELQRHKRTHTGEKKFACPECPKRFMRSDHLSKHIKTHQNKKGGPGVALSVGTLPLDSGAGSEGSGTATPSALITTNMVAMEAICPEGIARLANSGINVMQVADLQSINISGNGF

Target: Specificity protein 1 (Sp1) (UniProt P08047)
Test: co-IP; Co-IP of TKFC and Sp1, told only in the discussion; no methods, figure, bait or sample given

B1: Triokinase/FMN cyclase (TKFC) (protein, UniProt Q3LXA3 1-575)
chain: MTSKKLVNSVAGCADDALAGLVACNPNLQLLQGHRVALRSDLDSLKGRVALLSGGGSGHEPAHAGFIGKGMLTGVIAGAVFTSPAVGSILAAIRAVAQAGTVGTLLIVKNYTGDRLNFGLAREQARAEGIPVEMVVIGDDSAFTVLKKAGRRGLCGTVLIHKVAGALAEAGVGLEEIAKQVNVVAKAMGTLGVSLSSCSVPGSKPTFELSADEVELGLGIHGEAGVRRIKMATADEIVKLMLDHMTNTTNASHVPVQPGSSVVMMVNNLGGLSFLELGIIADATVRSLEGRGVKIARALVGTFMSALEMPGISLTLLLVDEPLLKLIDAETTAAAWPNVAAVSITGRKRSRVAPAEPQEAPDSTAAGGSASKRMALVLERVCSTLLGLEEHLNALDRAAGDGDCGTTHSRAARAIQEWLKEGPPPASPAQLLSKLSVLLLEKMGGSSGALYGLFLTAAAQPLKAKTSLPAWSAAMDAGLEAMQKYGKAAPGDRTMLDSLWAAGQELQAWKSPGADLLQVLTKAVKSAEAAAEATKNMEAGAGRASYISSARLEQPDPGAVAAAAILRAILEVLQS
  binding: no binding
